Patent publication US7838231
Results are given in words; binding and its absence hold for the method and conditions named. In cells and extracts the contact can be indirect. Some binding calls cover weakened binding; strength is not graded here.

Key:
[1] = target: T1, endogenous inversin of mouse kidney (mouse) (UniProt O89019); experiment: co-immunoprecipitation, mouse tissue
T1 sequence (looked up): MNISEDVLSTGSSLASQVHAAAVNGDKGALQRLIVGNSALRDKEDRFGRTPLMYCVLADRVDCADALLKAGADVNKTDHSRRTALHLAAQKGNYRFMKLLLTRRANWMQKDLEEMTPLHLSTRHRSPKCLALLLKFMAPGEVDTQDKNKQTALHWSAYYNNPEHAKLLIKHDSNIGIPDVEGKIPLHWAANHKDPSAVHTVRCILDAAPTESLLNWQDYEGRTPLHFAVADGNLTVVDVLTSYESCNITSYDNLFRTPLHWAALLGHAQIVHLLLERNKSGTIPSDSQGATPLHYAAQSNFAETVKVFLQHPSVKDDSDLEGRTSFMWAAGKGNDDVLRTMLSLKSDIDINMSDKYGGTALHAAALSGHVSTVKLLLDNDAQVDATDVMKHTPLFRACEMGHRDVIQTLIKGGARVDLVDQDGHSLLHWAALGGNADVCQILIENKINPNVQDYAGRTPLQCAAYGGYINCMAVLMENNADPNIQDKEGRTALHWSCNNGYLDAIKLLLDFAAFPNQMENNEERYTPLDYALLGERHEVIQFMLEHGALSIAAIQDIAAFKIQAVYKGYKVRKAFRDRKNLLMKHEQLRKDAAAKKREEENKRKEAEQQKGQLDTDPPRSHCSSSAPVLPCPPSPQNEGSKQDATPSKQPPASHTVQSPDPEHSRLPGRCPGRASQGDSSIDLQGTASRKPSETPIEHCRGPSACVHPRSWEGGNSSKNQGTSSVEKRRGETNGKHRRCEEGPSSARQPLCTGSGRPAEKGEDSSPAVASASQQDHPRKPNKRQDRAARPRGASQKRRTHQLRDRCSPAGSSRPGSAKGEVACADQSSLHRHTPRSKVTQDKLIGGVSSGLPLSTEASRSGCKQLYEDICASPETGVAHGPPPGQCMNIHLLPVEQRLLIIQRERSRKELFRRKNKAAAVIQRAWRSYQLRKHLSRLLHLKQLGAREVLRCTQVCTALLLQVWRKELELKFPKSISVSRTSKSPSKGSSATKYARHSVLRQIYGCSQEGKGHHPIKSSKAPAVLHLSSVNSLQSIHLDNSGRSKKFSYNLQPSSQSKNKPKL

[2] = target: T1, endogenous inversin of mouse kidney (mouse); experiment: co-immunoprecipitation of endogenous proteins from mouse kidney lysate with anti-nephrocystin antisera

B1: endogenous nephrocystin of mouse kidney (protein, UniProt Q9QY53 1-687, looked up)
chain: MLARRPRDPLQALRRRGQELKLQVDSLVTESQLTGALEPSKRREIYQRCIQLKQAVDENKNTLQKLNKADEAAPVGNYEQRKEEEHSLLEKLACQLQELAVSISRKDALKVEAHSDKEEDDTTEDDEEETGGEEEESEGDGEGKQEQASPKQAETETVTYIALGDFAAQQTGDLTFKKGDVLHIIEKKPDGWWLAKDAEGVEGLIPRTYLEPYNKEDKLESSEGSEEGGEEDGEEDVEVVDETADGAQVKQRTDSHWSAVRKAISEQINTVDVLATMGAIPAGFRPSTLSQLLDEAGNQFRASYFLQPELTTSQLAFRDLTWDAKAGTIMSRPSRVSLILTLWSCKMIPLPGTSIQVLSRHIRLCLFDGSKVLSNIHTVRAVWQPKKPKTWTFSPQVTGILPCLLDGDCFIRSNSSTPDLGILFELGISYIRNSTGERGELSCGWVFLKLFDASGVPIPAKTYELFLNGGTPYEKGVEVDPSVSRRAQGSVFRQMISVRRQPQLLVKLRSLNRRSRAMLSLLPETLVGSMCSAHLLIFYRQILGDVLLRDRTNLQSADLISHPVLATFPLLLEQPDVMDALRSSWSEKESTLKRAEKRDKELLKAEFLLVYHDCVLPLLHSTLLPPFRWAEEETEAARWKAIADFLKQSRENEGSLKALLSPDGVHKPFDLSEQTFDFLGEIRKNSG
Q: What does the source list for B1?
A: binding [1]: binds; binding [2]: binds
